# Values quoted from earlier work, collected in patent US20190008973A1, “INTRALIPID-IODINE FOR IMAGING” (priority 2017, published 2019).
# For at least one compound, name, drawing or mass did not settle the structure.
# Legend:
# free fatty acid efflux = details: 20-min ischemia, 40 min reperfusion; cited from earlier work
# [1] = tested on: ischemia/reperfusion injury; details: cited from earlier work
Compound,I/R-evoked FFA efflux (free fatty acid efflux),effect of inhibitor on Intralipid-induced cardioprotection [1]
C=CC[C@@H]1/C=C(\C)C[C@H](C)C[C@H](OC)[C@H]2O[C@@](O)(C(=O)C(=O)N3CCCC[C@H]3C(=O)O[C@H](/C(C)=C/[C@@H]3CC[C@@H](O)[C@H](OC)C3)[C@H](C)[C@@H](O)CC1=O)[C@H](C)C[C@@H]2OC [FK506],"suppressed the I/R-evoked efflux of FFAs, but less effectively than CsA",–
O=c1cc(N2CCOCC2)oc2c(-c3ccccc3)cccc12 [LY294002],–,fully abolished
CO[C@H]1C[C@@H]2CC[C@@H](C)[C@@](O)(O2)C(=O)C(=O)N2CCCC[C@H]2C(=O)O[C@H]([C@H](C)C[C@@H]2CC[C@@H](O)[C@H](OC)C2)CC(=O)[C@H](C)/C=C(\C)[C@@H](O)[C@@H](OC)C(=O)[C@H](C)C[C@H](C)/C=C/C=C/C=C/1C [Rapamycin],did not suppress I/R-evoked FFA efflux,–
